Data set [1] addresses T1, CodY (H6-CodY) (Lactococcus lactis subsp. cremoris MG1363) (UniProt A2RHP2).
T1 sequence (looked up, limits assumed): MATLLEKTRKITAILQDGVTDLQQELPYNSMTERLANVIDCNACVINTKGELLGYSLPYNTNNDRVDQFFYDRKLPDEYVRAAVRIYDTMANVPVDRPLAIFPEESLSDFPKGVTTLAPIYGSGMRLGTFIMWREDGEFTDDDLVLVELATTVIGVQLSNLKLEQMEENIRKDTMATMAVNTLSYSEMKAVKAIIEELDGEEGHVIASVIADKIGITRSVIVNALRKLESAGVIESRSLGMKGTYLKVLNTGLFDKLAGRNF
The data set can be described thus: EMSA. The following applies: purified recombinant protein, label: 32P 5'-end, variant of opp14 WT oppD fragment (154 bp), only the site is given. A general note: Mobility shift assays separate free from complexed probe on a gel.

The target in data set [2] is T2, CodY (native, in cell) (Lactococcus lactis subsp. cremoris MG1363) (UniProt A2RHP2).
T2 sequence (looked up, limits assumed): T1 sequence (looked up, limits assumed)
The data set can be described thus: activity in cells. The following applies: lacZ reporter in L. lactis LL108, exponential growth in rich medium; protein in cells; only the site is given; counted as no effect.

For part of these data: Weaker means in comparison with the reference protein, sequence or condition of that experiment. Protein sequences can lack the tags named with them.

Regarding “AACTGCAGCGTAATATTTAGAAAATTCATGAACATACC (double strand) [opp15(a) mutant oppD fragment (154 bp)]”, the binding result in data set [1] (weaker than WT) was “binds more weakly”.
As to “AACTGCAGCGTACTGTGCCGAAAATTCATGAACATACC (double strand) [opp15(b) mutant oppD fragment (154 bp)]”, the binding result in data set [1] (hardly any complexes, intermediate complexes absent) is recorded as “binds more weakly”.
In data set [2], “AACTGCAGGAAAATTCATGAACATACC (double strand) [oppD probe 1 / opp2 (160 bp, upstream arm removed)]” showed an activity on this sequence (fold derepression vs WT) of 30.

Values taken from patent US20070243303, “Methods and Means for Regulating Gene Expression” (Friesland Brands B.V., published 2007).
